# Test results taken from paper PMC8060364.
# Amino acid sequences for entries named in this document (tags omitted).
# UniProt P0A6X3: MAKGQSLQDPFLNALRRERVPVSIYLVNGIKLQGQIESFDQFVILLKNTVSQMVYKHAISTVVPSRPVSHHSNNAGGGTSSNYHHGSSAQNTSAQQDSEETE
# No constants are given. Whether binding was seen depends on the method and setting. Binding seen in cells or lysates may run through a third protein.
# Target: T1, RelA:C289Y, chromosomally encoded, in E. coli cell lysate (E. coli (endogenous in E. coli)) (UniProt P0AG20)
# T1 sequence: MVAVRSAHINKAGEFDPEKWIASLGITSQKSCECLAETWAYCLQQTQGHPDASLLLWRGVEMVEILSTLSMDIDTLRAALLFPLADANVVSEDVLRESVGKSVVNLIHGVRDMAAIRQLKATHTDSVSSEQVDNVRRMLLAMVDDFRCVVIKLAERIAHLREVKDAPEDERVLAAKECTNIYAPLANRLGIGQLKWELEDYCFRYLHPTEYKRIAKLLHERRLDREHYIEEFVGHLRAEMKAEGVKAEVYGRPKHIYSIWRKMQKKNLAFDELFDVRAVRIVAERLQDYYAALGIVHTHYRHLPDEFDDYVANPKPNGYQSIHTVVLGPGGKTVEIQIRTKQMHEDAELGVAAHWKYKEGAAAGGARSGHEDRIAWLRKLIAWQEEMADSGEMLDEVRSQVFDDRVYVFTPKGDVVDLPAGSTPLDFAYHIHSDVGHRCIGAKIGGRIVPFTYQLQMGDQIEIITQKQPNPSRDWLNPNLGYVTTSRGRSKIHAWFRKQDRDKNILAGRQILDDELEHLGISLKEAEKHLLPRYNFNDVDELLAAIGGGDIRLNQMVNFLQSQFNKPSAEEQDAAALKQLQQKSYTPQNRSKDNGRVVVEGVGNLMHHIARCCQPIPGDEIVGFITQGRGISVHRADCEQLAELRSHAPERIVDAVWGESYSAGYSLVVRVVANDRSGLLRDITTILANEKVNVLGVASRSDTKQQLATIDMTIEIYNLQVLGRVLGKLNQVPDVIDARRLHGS
# Test: co-IP; lysates of E. coli grown overnight in M9 minimal medium, left untreated; rabbit anti-RelA antibody and Protein A Sepharose, 4 °C; lysis buffer 20 mM Tris pH 8.0, 150 mM KCl, 1 mM MgCl2, 1 mM DTT; Hfq detected by western with anti-Hfq
substance,measurement,value
"Hfq, chromosomally encoded, in E. coli cell lysate (from UniProt P0A6X3 1-102)",binding,no binding
